## Library screening results

Sequences of proteins named here, by UniProt entry; tags and fusion partners are left off.
UniProt E9BF75, entry or part of it: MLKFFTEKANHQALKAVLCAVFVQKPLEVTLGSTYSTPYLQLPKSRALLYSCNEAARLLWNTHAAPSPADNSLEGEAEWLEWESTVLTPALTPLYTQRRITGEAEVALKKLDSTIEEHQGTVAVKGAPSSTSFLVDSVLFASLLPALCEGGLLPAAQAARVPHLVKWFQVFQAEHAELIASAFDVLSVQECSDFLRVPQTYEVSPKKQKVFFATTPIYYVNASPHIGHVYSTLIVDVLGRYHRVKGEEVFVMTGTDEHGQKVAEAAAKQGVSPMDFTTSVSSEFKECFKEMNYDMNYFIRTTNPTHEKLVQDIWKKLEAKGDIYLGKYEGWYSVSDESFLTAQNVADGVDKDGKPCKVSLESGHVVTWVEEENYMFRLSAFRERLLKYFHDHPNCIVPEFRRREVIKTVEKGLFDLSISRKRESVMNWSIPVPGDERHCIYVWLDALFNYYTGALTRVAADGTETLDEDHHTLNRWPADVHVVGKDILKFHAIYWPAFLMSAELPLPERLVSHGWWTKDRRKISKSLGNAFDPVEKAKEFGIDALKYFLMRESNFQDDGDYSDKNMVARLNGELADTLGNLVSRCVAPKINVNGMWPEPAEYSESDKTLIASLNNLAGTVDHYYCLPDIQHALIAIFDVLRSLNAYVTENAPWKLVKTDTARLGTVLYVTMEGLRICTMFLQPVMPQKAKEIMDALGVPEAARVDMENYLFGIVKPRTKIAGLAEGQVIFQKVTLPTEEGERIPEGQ

A: 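Assay on Mycobacterium tuberculosis, filed only as a heat shock assay from Cornell; the read-out is not stated. The concentration is filed as 10 mM, unlikely as a test dose, so the dose is not known. Direction is inferred from retests: higher values go with stronger inhibition. Of about 69,000 compounds tested this way, about 930 (1.4%) reached 50% or more in at least one test.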
B: 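Methionyl-tRNA synthetase (putative), Leishmania donovani (UniProt E9BF75). Primary screen of methionyl-tRNA synthetase; the read-out is not stated. The test concentration is not given. The values are filed as inhibition. Of about 68,000 compounds tested this way, about 24 (0.035%) reached 50% or more in at least one test.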
C: 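Whole-cell assay for inhibitors of Mycobacterium tuberculosis growth, labelled Cornell in the record; the read-out is not stated. The concentration is filed as 10 mM, unlikely as a test dose, so the dose is not known. The record gives no direction; compounds strong in two other growth screens of this library score well above the rest, so higher reads as stronger inhibition. Of about 53,000 compounds tested this way, about 900 (1.7%) reached 50% or more in at least one test.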

All values are in %.
The controls that fix the scale are not given in the record; negative values are as filed.
This is an unselected part of the compounds tested.
A dash means the value is not listed here; it may have been measured.

SMILES,A,B,C
COc1cc(F)ccc1-c1cnc(N)cn1,5.577,11.98,24.78
Cc1c(F)cccc1S(=O)(=O)NCCN.Cl,-2.492,-,1.536
Cc1ncc2c(n1)CN(CC(=O)Nc1ccc(Cl)cn1)CC2,1.228,23.41,-18.77
COc1ccc(-n2nnnc2C(C)(C)Nc2ccc(C)cc2C)cc1,-21.61,13.26,-
COCCN1CCC2(CCCN(Cc3ccoc3)C2)C1=O (stereo not drawn),-,0.9615,-
CC(CCc1ccc(O)cc1)NC1CCN(S(C)(=O)=O)CC1 (stereo not drawn),1.569,11,16.68
CCc1ncnc2c1CCN(S(=O)(=O)CC)CC2,26.72,16.42,-11.82
CC(C)(NCC(=O)NCC1CC1)c1ccc2c(c1)OCCO2,-30.63,7.222,-26.67
CCN(Cc1noc(C2CCC2)n1)C(=O)c1cnc2ccccc2c1,-7.307,11.53,2.592
CN(C)c1ncc(C2Nc3ccccc3C3=NCCCN32)cn1.Cl (stereo not drawn),-10.6,-,0.6486
CSc1nsc(NC(=O)N2CCc3ccccc3C2)n1,38.34,16.9,28.72
Cc1cn[nH]c1C1COCCN1S(=O)(=O)c1cn[nH]c1 (stereo not drawn),19.88,9.677,-7.497
O=C(Cc1ccsc1)NCCc1ccoc1,21.97,9.42,15.85
CCc1cc(N[C@H](C(N)=O)[C@@H](C)CC)n2nccc2n1,12.58,7.843,9.069
CC(=O)N1[C@H](Cn2cncn2)C[C@@H]2CN(Cc3nccs3)CC[C@@H]21,-,8.795,-
CCc1nc(CN2CCCC(NCc3nc4ccccc4o3)C2)no1 (stereo not drawn),-9.81,8.939,-
Cc1nc(CN2CCC2(CCCc2ccccn2)C(=O)N(C)C)co1 (stereo not drawn),16.78,13.65,9.884
OC1(CNCCc2nc3c(s2)CCCC3)CCNC1 (stereo not drawn),-31.38,15.76,-3.425
CCCn1[nH]cc/c1=N\C(=O)CN1CCc2cnc(CC)nc2C1,8.464,8.392,-
COc1cccc2[nH]c(C(=O)N3CCNCC3C(N)=O)cc12.Cl (stereo not drawn),-10.67,-,-28.32
CCC(=O)NCCc1cc(N2CCN(C(C)=O)CC2)nc(C2CC2)n1,0.6671,16.78,0.2621
COCC(=O)N1CC[C@@H]2CN(Cc3cccnc3)S(=O)(=O)[C@@H]2CC1,-,17.57,-
Cc1cc(CNC(=O)Nc2cc(F)cc(N3CCCC3)c2)no1,6.11,16.43,-9.285
c1cncc(CN2CCC(NCCc3ccc4c(c3)OCO4)CC2)c1,-18.54,1.882,-29.36
Cc1ccc(CN2CC[C@H]3[C@H]2CCN3S(=O)(=O)C2CC2)s1,-,-3.759,-
O=c1ccc2c(n1Cc1cccnc1)CCC(NCc1cccnc1)C2 (stereo not drawn),-9.589,17.75,30.08
Cc1cnc(CC2COCCN(C(=O)CN3CCCCC3)C2)cn1 (stereo not drawn),16.23,16.49,24.75
Cc1nc(CN2CCC3(CC2)NC(=O)CC3c2ccccc2)cs1.O=C(O)C(F)(F)F (stereo not drawn),-27.68,-,17.48
CC(C)CCN1C[C@H]2C[C@H](C(=O)N3CCCC3)[C@@H](C1)O2,-,5.464,-
COc1cc2cc(C)c(SCCN3CCCC3)nc2cc1OC,-,17.09,-
CS(=O)(=O)c1ccc(NC(=O)NCc2ccc3c(c2)CCC3)cn1,15.18,12.88,23.89
CC(=O)N1CCCn2nc(CNS(=O)(=O)N3CCCCCC3)cc2C1,-29.8,15.56,26.56
Cc1cc(S(=O)(=O)N2CC[C@@H](O)C2)c(Cl)cc1F,5.508,8.71,11.46
Cn1cc(CNC2CC3(CCN(S(C)(=O)=O)CC3)c3ccccc32)cn1.O=C(O)C(F)(F)F (stereo not drawn),36.25,-,-3.593
Fc1ccc(C2(c3noc(CCN4CCCCO4)n3)CCOC2)cc1 (stereo not drawn),-28.21,13.73,-
O=C(Cc1ccc2c(c1)OCO2)N1CCCN(c2nccs2)CC1,-13.27,13.54,12.18
O=C(CO)N1CC[C@@H](N2CCN(c3ccccc3F)CC2)[C@H](O)C1,-9.775,11.15,24.43
Cc1cc(CNC(=O)Nc2cccc(COCCOC(C)C)c2)no1,1.528,24.84,-
CN1Cc2ccccc2CC2(CCN(CCO)CC2)C1=O.O=C(O)C(F)(F)F,19.63,-,-29.96
c1cnc(NCc2cncc3c2CCN(Cc2cccs2)C3)nc1,-,11.5,-
O=C(Nc1cnc(C2CC2)nc1)N1CCCC1,6.216,1.928,-26.1
COCCN1CCN(CC(=O)NC2(C#N)CCCC2)CC1C (stereo not drawn),-47.29,0.2688,-20.97
CCOC1CC2(CCN(C(=O)Cc3ccccn3)CC2)C1,-,-3.922,-
Nc1cnc(-c2cccc3ccnn23)cn1,1.137,8.935,0.8197
Cc1cccc2cc(CNCCCN3CCOCC3)c(=O)[nH]c12,-9.395,8.562,-13.7
CCn1nc(C)c2ncnc(N(C)Cc3ccco3)c21,-5.352,9.065,10.25
Cc1cnc(NC(=O)c2csc(NCC(C)C)n2)s1,103.8,18.04,60.38
Nc1cc2c(nn1)CCN(C(=O)CCCC1CCCCC1)C2,-1.969,30.7,-
COCCN1C(=O)CC[C@]12CC[C@@H](NCc1cccnc1OC)CC2.O=C(O)C(F)(F)F.O=C(O)C(F)(F)F,-19.56,-,2.606
CCN(CC)C(=O)Nc1cc2c(cc1SC)OCCO2,3.87,9.524,2.965
O=C(c1ccc(Cl)cc1)N1CCC(N2CCNC2=O)CC1,-35.06,2.857,-
CC(=O)N1CC(c2ccnc(Nc3nccs3)n2)C1,12.72,11.63,36.37
Cc1noc(C)c1CN1CC[C@H](OCC2CC2)[C@@H](Cc2ccccc2)C1,3.881,23.81,-18.38
Cc1ccc2nc(C)c(C)c(C(=O)N3CCS(=O)(=O)CC3)c2c1,-16.29,11.73,-4.894
CCNc1ncc(-c2cc(-c3ccn(C)c3)nc(N)c2C#N)cn1,6.196,15.76,7.509
COCC(=O)N1CCC(c2cc3ncccc3c(O)n2)CC1,10.22,8.387,-11.96
Cn1ncc2c(=O)[nH]c(N3CCCC3c3cccc(Cl)c3)nc21 (stereo not drawn),-0.9861,12.64,9.411
O=C(O)c1ccnc(-c2ccnc(N3CCC(F)(F)CC3)n2)c1,-14.96,4.762,13.29
CCn1cc(CN2CCC(c3ccncc3)CC2)cc1C#N,-22.22,10.88,0.8496
O=C(Cc1ccc2c(c1)CCO2)Nc1ccc(-n2cncn2)nc1,-13.29,0.7246,-11.41
COc1ccccc1C1(CNc2ccnc(C(=O)N(C)C)c2)CC1,35.39,3.873,-30.15
O=C(Cc1ccon1)N(CCC(F)(F)F)C1CCCC1,-39.63,11.54,0.4217
CN(Cc1ccccc1CN1CCCC1)C(=O)c1c[nH]c(=O)[nH]1,42.24,5.783,23.92
CC(=O)N1CCC2(CC1)CC(NC(=O)N(C)C)c1cc(C)ccc12 (stereo not drawn),3.014,7.397,20.68
CCOc1ccnc(N2CCN(C(=O)CCc3ccsc3)CC2)n1,-22.9,14.69,-6.761
Cc1noc(NC(=O)c2ccc(F)cc2)n1,105.9,21.14,2.649
O=C1N(CCO)CCCC12CCN(Cc1noc(C3CCCC3)n1)C2 (stereo not drawn),-31.96,3.911,-3.87
O=S(=O)(NCC1COc2ccccc2C1)N1CCCCCC1 (stereo not drawn),1.867,7.357,18.47
O=C1CCc2cc(OCCN3CCc4cncnc4C3)ccc2N1,7.898,13.71,-59.48

Data taken from ChEMBL document CHEMBL3988442, “University of Dundee, Small-Polar-MMV Screening Library” (2021).